Measurements reported in PubChem BioAssay AID1671195 (Yale University, 2021)
Shown is a random part of about 22,000 reagents. In the full data, about 1,510 (6.9%) were called active. 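Active includes knockdowns raising or lowering LDL uptake; positive z-scores mean more uptake, negative mean less.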 Reagent sequences are not shown.

- Assay: 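Knockdowns that increase or decrease uptake of fluorescent LDL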 (primary screen)
- System: human Huh7 hepatoma cells
- Reagents: siRNA pool against human genes, 18 nM
- Time to read-out: about 2 to 2.5 days of knockdown, then 8 h LDL uptake
- Treatment: DiI-labelled LDL at 30 µg/ml for 8 h, in lipoprotein-deficient serum medium
- Detection: 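Fluorescent LDL signal imaged in cells, scaled to the plate median, robust z-score for each replicate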
- Reading the numbers: robust z-score: higher = more LDL uptake after knockdown
- Hit rule: 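a gene counts as active if at least two replicate z-scores exceed ±2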

target	PubChem SID	robust z-score, replicate 1	robust z-score, replicate 2	robust z-score, replicate 3	call
RNF43	SID442891126	0.596	-0.113	0.5	inactive
TMEM150B	SID442903313	-1.35	-1.3	-1.16	inactive
EVPL	SID442902062	-0.653	-0.524	-1.84	inactive
LOC440186 (retired record)	SID442886032	1.51	1.07	1.28	inactive
GPATCH2	SID442893661	-0.432	-0.642	1.15	inactive
ASS1P14	SID442900749	-0.88	-0.802	-0.722	inactive
TEKT5	SID442885969	0.771	0.943	2.2	inactive
LOC400865 (retired record)	SID442904711	-1.88	-1.9	-1.67	inactive
UBTFL2	SID442895870	0.368	-0.336	-0.677	inactive
FLJ45337 (retired record)	SID442896730	-0.284	-0.333	-0.301	inactive
FYN	SID442885708	1.47	1.25	1.47	inactive
CRTC2	SID442893229	0.0662	0.0858	0.0698	inactive
CLU	SID442904346	-1.64	-1.23	-1.91	inactive
HISLA	SID442900848	-0.853	-0.904	-0.691	inactive
LOC442423 (retired record)	SID442888446	0.227	1.11	0.816	inactive
COA7	SID442903279	-1.25	-1.33	-1.2	inactive
ZBTB16	SID442899764	-0.765	-0.904	-0.327	inactive
LOC284964 (retired record)	SID442886370	1.6	1.15	0.782	inactive
RAB8B	SID442888766	-0.789	2.27	0.511	inactive
MCIDAS	SID442886445	1.1	0.977	1.4	inactive
CLP1	SID442904753	-1.66	-1.6	-2.33	inactive
LOC441346 (retired record)	SID442899640	-0.404	-0.769	-0.775	inactive
IGSF9	SID442887970	-0.222	0.0325	2.61	inactive
NLRP4	SID442895404	-0.256	0.0585	-0.3	inactive
ERGIC3	SID442900900	-0.245	-1.37	-0.853	inactive
NMNAT3	SID442887625	1.13	1.16	0.327	inactive
VWA8	SID442896348	-0.304	-0.342	-0.142	inactive
LOC400575 (retired record)	SID442892472	0.0468	0.287	0.155	inactive
S100B	SID442884571	-2.6	-2.46	-2.73	active
RPA3	SID442891087	0.216	0.826	-0.0423	inactive
MIER2	SID442893671	0.945	-0.901	0.0258	inactive
BCL10	SID442888962	0.833	-0.131	1.2	inactive
SPRR2B	SID442896350	-1.19	0.587	-0.188	inactive
FERMT1	SID442895892	0.462	-0.987	-0.127	inactive
IFRD2	SID442895443	0.317	0.432	-1.26	inactive
FAM221B	SID442901341	-0.434	-1.18	-1.04	inactive
C5AR1	SID442904329	-0.994	-1.88	-1.88	inactive
LINC01366	SID442886152	1.48	1.44	0.822	inactive
CFC1	SID442888009	0.702	2.08	-0.387	inactive
ERCC8	SID442888738	0.893	0.982	0.136	inactive
BTN2A2	SID442896183	-0.0768	-0.299	-0.364	inactive
ZBED3	SID442886640	0.835	1.28	1.19	inactive
METTL17	SID442891566	0.0493	0.78	-0.0169	inactive
APOLTP	SID442886402	0.86	1.45	1.21	inactive
RCE1	SID442887843	0.957	0.415	1.12	inactive
MCPH1	SID442890015	0.485	0.607	0.333	inactive

Not a retest: an excerpt of the list.
target	PubChem SID	robust z-score, replicate 1	robust z-score, replicate 2	robust z-score, replicate 3	call
LOC400575 (retired record)	SID442892472	0.0468	0.287	0.155	inactive
S100B	SID442884571	-2.6	-2.46	-2.73	active
RPA3	SID442891087	0.216	0.826	-0.0423	inactive
MIER2	SID442893671	0.945	-0.901	0.0258	inactive
BCL10	SID442888962	0.833	-0.131	1.2	inactive
